In article PMC9296525 one finds binding data, which are given here for one substance.

Amino acid sequences for entries named in this document (tags omitted). Residues count along the entry.
UniProt P56958: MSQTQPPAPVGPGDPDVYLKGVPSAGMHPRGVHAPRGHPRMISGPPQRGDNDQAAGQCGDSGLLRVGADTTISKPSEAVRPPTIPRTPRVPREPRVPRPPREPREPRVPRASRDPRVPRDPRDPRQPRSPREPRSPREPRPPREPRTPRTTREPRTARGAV
UniProt Q14790, residues 217-374: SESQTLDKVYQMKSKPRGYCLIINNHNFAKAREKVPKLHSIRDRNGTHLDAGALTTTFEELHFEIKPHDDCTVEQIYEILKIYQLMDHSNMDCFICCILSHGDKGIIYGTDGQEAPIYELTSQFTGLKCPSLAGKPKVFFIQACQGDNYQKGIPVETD

The assay deals with HSV-1 tegument protein Us11 (HSV-1 strain F) (UniProt P56958). The assay can be described thus: co-IP; lysate of THP-1 cells infected with HSV-1 (MOI 50, 18 h p.i.) or mock-infected; anti-Us11 monoclonal antibody pre-adsorbed on protein A-Sepharose beads, overnight at 4 °C; lysis buffer 20 mM Tris-HCl pH 8, 200 mM NaCl, 1% Nonidet P-40; blot with anti-caspase-8 (12F5).

These are yes or no findings as the source states them, for the method shown. Binding seen in cells or lysates may run through a third protein. Some binding calls cover weakened binding; strength is not graded here.

Regarding “caspase-8 p18 cleaved fragment (from UniProt Q14790 217-374) (domain or fragment)”, the binding result is given as “binds”.
